The values below come from PMC11214632.

By UniProt entry, the sequences of proteins in these tests, tags left out.
UniProt Q99J95: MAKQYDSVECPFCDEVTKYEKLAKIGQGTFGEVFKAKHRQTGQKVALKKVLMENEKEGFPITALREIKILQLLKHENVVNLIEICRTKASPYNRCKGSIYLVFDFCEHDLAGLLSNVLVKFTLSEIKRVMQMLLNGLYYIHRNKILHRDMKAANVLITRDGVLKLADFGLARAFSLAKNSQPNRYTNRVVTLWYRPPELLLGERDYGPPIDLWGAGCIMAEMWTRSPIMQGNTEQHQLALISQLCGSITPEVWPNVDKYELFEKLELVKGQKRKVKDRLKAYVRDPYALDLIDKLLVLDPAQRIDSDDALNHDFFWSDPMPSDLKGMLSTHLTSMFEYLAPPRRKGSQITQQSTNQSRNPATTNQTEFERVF

Results are given in words; binding and its absence hold for the method and conditions named. In cells and extracts the contact can be indirect. Some binding calls cover weakened binding; strength is not graded here.

Assay [1] concerns the target T1, Tripartite motif-containing 33 (TRIM33) (mouse (endogenous in C57BL/6 BM Lin–FLT3+ cells and in Mutu DC1940 cells)) (UniProt Q99PP7).
T1 sequence: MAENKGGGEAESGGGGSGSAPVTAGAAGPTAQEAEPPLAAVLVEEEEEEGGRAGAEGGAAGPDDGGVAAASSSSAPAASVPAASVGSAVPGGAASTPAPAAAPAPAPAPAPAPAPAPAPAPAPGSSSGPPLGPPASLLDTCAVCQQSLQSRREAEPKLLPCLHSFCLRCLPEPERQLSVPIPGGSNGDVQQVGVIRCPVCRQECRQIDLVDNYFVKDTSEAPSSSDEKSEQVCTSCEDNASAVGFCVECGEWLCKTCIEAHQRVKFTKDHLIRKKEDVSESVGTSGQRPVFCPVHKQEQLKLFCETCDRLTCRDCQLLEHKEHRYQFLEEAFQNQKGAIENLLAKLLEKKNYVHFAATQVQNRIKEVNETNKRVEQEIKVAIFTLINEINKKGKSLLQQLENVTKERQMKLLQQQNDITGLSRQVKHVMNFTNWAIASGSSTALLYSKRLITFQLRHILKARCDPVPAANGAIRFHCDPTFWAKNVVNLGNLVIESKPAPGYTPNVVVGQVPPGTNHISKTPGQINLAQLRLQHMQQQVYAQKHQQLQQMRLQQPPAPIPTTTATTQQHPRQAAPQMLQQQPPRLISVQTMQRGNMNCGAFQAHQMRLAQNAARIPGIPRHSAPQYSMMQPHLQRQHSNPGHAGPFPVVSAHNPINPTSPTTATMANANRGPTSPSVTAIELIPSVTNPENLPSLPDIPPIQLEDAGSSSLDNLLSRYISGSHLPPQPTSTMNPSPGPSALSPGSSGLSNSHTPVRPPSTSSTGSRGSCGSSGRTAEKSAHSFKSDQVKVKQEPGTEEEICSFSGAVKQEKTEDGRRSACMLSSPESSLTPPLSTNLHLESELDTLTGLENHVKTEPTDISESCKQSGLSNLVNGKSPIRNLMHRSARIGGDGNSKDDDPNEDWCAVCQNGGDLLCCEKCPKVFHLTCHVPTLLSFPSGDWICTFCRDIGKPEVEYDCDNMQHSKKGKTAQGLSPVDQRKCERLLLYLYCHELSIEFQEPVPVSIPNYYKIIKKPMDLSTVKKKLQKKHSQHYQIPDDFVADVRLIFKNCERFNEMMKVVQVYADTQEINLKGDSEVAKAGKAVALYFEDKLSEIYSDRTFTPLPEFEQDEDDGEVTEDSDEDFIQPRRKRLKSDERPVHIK
Description: co-IP; lysates of Mutu DC1940 cells precipitated with anti-TRIM33 antibody, anti-CDK9 antibody or IgG at 4 °C overnight, Protein A + G magnetic beads, Western blot.

For assay [2], the target named is cyclin-dependent kinase 9 (CDK9) (mouse (endogenous in C57BL/6 BM Lin–FLT3+ cells and in Mutu DC1940 cells)) (UniProt Q99J95). The description is as above.

“cyclin-dependent kinase 9 (CDK9) (from UniProt Q99J95 1-372)”: the binding result in assay [1] was “binds”.

B1: Tripartite motif-containing 33 (TRIM33) (protein, UniProt Q99PP7 1-1142)
chain: T1 sequence
In the case of B1, the binding result in assay [2] is “binds”.
